The record followed here is paper PMC13507242.

Amino acid sequences for entries named in this document (tags omitted). A change or cut given only in a name is not applied to a line headed by its entry. Residues count along the entry.
UniProt P20138, residues 18-364: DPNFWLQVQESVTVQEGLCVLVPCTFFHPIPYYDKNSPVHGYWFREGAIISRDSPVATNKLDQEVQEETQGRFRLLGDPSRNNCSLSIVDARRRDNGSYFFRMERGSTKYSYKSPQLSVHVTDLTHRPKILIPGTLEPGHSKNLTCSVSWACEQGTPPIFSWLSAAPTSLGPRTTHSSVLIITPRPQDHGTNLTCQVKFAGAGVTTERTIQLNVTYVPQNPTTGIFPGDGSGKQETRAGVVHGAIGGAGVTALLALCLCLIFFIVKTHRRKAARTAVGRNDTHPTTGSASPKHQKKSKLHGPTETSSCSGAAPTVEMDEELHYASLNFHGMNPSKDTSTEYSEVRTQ
UniProt Q14114, residues 42-826: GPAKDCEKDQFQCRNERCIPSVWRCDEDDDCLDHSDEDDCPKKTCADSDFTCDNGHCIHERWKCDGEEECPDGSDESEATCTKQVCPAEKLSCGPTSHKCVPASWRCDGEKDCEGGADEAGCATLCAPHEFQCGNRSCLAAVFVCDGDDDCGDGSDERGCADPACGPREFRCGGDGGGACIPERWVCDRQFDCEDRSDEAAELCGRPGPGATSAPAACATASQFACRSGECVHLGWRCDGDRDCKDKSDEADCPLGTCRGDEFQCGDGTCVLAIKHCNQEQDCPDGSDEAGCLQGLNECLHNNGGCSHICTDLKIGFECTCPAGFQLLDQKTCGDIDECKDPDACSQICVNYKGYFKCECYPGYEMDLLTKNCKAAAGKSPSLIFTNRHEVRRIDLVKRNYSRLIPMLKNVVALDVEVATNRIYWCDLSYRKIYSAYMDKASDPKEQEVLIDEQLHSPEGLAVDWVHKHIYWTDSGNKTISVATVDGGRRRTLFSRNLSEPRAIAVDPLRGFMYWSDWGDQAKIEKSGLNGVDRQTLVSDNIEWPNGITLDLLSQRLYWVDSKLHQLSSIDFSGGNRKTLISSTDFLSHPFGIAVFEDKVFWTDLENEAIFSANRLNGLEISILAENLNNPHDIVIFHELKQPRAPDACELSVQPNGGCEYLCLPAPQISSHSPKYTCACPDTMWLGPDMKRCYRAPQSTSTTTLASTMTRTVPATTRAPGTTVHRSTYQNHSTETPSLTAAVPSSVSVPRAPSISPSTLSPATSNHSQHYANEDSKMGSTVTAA
UniProt P29350: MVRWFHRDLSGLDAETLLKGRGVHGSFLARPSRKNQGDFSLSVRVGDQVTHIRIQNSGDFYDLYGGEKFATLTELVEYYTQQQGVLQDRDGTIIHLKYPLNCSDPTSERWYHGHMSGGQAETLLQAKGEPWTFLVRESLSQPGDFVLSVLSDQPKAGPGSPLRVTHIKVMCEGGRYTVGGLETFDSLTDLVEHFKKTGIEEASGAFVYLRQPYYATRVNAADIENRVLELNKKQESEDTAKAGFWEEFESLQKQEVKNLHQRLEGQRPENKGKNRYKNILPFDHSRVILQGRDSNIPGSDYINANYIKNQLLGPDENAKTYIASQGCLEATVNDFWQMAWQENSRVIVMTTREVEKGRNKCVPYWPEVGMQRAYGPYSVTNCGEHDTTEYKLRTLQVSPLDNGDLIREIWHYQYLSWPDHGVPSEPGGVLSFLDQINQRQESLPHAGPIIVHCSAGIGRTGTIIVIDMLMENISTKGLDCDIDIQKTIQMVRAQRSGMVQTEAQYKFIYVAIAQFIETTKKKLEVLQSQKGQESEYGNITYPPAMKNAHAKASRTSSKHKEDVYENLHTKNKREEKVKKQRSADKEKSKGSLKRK
UniProt P02649, residues 19-317: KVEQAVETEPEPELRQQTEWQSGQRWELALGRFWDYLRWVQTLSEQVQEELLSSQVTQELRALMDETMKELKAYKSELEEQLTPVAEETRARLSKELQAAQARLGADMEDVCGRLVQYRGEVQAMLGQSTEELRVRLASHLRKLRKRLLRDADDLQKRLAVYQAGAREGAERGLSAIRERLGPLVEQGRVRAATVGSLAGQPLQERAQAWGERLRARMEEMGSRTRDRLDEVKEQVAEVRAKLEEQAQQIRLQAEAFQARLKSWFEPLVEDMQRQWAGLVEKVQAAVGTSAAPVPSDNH
UniProt P10909: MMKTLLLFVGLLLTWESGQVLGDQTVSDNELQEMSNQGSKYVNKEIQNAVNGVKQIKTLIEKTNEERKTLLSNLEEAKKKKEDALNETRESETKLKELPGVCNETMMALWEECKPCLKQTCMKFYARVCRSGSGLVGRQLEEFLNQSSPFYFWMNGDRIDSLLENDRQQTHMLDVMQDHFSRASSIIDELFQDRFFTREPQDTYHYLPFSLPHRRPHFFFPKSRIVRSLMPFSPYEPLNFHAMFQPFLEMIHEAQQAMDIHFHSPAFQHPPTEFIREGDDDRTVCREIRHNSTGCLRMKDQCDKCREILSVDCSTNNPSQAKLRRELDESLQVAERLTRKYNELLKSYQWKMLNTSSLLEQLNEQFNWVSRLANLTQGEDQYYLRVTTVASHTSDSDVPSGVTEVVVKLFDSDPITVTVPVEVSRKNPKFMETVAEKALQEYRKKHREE

No constants are given. Whether binding was seen depends on the method and setting. Binding seen in cells or lysates may run through a third protein. Some results given as binding are weak or reduced against the parent protein; the word gives no strength.

Assay [1] deals with endogenous CD33 of human THP-1 cells and human blood monocytes (human (endogenous in THP-1 and blood monocytes)) (UniProt P20138). The experiment in a line: proximity ligation; flowPLA of CD33 and SHP-1 in permeabilized, fixed human monocytes (rs3865444 CC), untreated or 60 nM CLU for 15 min at 37 °C; read by flow cytometry. For orientation: In flow cytometry, cells or beads pass a laser one at a time.

The target in assay [2] is ApoER2 ectodomain fused to His-tag (UniProt Q14114). In words: pull-down; 20 µg His-tagged protein on His-tag Dynabeads, incubated 4 h at 4 °C with culture supernatant with ApoE3 or ApoE4 (3 µg/ml); washes with 500 mM NaCl, 0.5% Triton X-100; blot for ApoE; called co-immunoprecipitation by the paper; only the target purified.
Assay [3] concerns the target endogenous CD33 of human cerebral cortex (human (endogenous in brain tissue)) (UniProt P20138). In words: proximity ligation; in situ PLA on post-mortem AD brain sections with anti-CD33 and anti-clusterin antibodies (<40 nm).
The target is the same in assay [4]. In words: co-IP; anti-CD33 IP from lysates of AD (n = 3) and control (n = 3) cerebral cortex, blot for CLU.

For the substance “endogenous SHP-1 (SH2-containing protein tyrosine phosphatase 1) (from UniProt P29350 1-595) (enzyme)”, the binding entry in assay [1] is given as “binds”.
Take “ApoE3 (ApoE ε3), naturally secreted, fully sialylated (from UniProt P02649 19-317) (ligand)”: in assay [2], the binding result was “binds”.
Consider “endogenous clusterin (CLU) of human cerebral cortex (from UniProt P10909 23-227; P10909 228-449) (ligand)”, for which the binding entry in assay [3] and in assay [4] was “binds” in each case.
